PubChem BioAssay AID686938 | Drosophila RNAi Screening Center | 2013
Aim: 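Knock-downs reducing store-operated calcium influx in Drosophila cells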 (primary screen). System: Drosophila S2R+ cells. Knock-down reagent: long dsRNA against Drosophila genes, about 0.25 µg dsRNA per well, roughly 10,000 cells. Duration: 5 days of knock-down before the calcium assay. Conditions: thapsigargin (SERCA pump blocker) to empty calcium stores; entry signal taken 4 min after adding it. Measurement: 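Duplicate raw fluo-4 intensities per well from a plate reader, at rest and four minutes after thapsigargin emptied calcium stores; entry-to-rest ratio filled for only some wells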. Scale: calcium entry signal: higher = stronger calcium signal after store depletion; entry to resting ratio: higher = more calcium entry relative to resting level; resting calcium signal: higher = higher resting calcium signal. Active means: 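Hit if the duplicate-averaged plate z-score for entry over resting signal is under −3; wells with weak total dye signal (Fmax z < −2) or more than 5 off-targets removed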. Calls: active = strongly reduced calcium entry; inactive = no strong reduction.
The deposit covers about 23,000 reagents; this is a random part of those that have a named target and a result. Of all reagents, 75 (0.33%) are marked active. 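Raw plate signals without normalisation; calls rest on plate z-scores that were not deposited; ratio present for only 364 wells.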 A number with no mark means an inactive call. Not stated in the record: the dose of the treatment.

| gene knocked down | PubChem SID | calcium entry signal, replicate 1 (fluorescence units) | calcium entry signal, replicate 2 (fluorescence units) | entry to resting ratio | resting calcium signal, replicate 1 (fluorescence units) | resting calcium signal, replicate 2 (fluorescence units) |
| --- | --- | --- | --- | --- | --- | --- |
| DCTN4-p62 (GeneID 35709) | SID104185893 | 2.66e7 | 1.97e7 | – | 1.10e7 | 9.91e6 |
| Xpac (GeneID 31357) | SID104198522 | 3.49e7 | 4.58e7 | – | 1.57e7 | 1.97e7 |
| CG3698 (GeneID 40298) | SID104191541 | 2.94e7 | 4.16e7 | – | 1.38e7 | 2.96e7 |
| CG13339 (GeneID 36528) | SID104186165 | 3.33e7 | 5.16e7 | – | 1.74e7 | 2.08e7 |
| CG30158 (GeneID 50149) | SID104184748 | 1.81e7 | 2.69e7 | – | 9.28e6 | 1.22e7 |
| CG30158 (GeneID 50149) | SID104184766 | 3.92e7 | 3.04e7 | – | 1.78e7 | 1.46e7 |
| CG30158 (GeneID 50149) | SID104184767 | 4.45e7 | 3.57e7 | – | 2.01e7 | 1.49e7 |
| CG30158 (GeneID 50149) | SID104184804 | 4.75e7 | 3.31e7 | – | 2.01e7 | 1.52e7 |
| CG15172 (GeneID 35167) | SID104182265 | 5.52e7 | 5.03e7 | – | 2.80e7 | 2.11e7 |
| CG14856 (GeneID 41790) | SID104194772 | 3.04e7 | 5.65e7 | – | 1.57e7 | 5.95e7 |
| CG13566 (GeneID 37813) | SID104183995 | 3.82e7 | 4.47e7 | – | 1.96e7 | 2.07e7 |
| Veneno (GeneID 41000) | SID104196329 | 4.68e7 | 3.00e7 | – | 2.18e7 | 1.53e7 |
| DCAF12 (GeneID 41460) | SID104195267 | 2.74e7 | 3.50e7 | – | 1.27e7 | 1.56e7 |
| iPLA2-VIA (GeneID 39160) | SID104190491 | 4.41e7 | 3.66e7 | – | 2.56e7 | 1.47e7 |
| Tapdelta (GeneID 45680) | SID104185738 | 2.58e7 | 3.30e7 | – | 1.19e7 | 1.56e7 |
| mRpS17 (GeneID 37872) | SID104184255 | 3.66e7 | 3.36e7 | – | 1.73e7 | 1.56e7 |
| Gyc32E (GeneID 34553) | SID104180946 | 3.86e7 | 4.74e7 | – | 1.95e7 | 2.11e7 |
| SAK (GeneID 40384) | SID104191671 | 2.67e7 | 4.29e7 | – | 1.34e7 | 1.87e7 |
| SAK (GeneID 40384) | SID104202686 | 3.88e7 | 3.59e7 | – | 2.11e7 | 1.63e7 |
| loco (GeneID 42672) | SID104194994 | 4.06e7 | 4.13e7 | – | 1.91e7 | 1.76e7 |
| loco (GeneID 42672) | SID104196781 | 4.49e7 | 3.09e7 | – | 1.92e7 | 1.42e7 |
| CG31482 (GeneID 40806) | SID104192374 | 3.98e7 | 2.84e7 | – | 1.74e7 | 1.41e7 |
| CG5273 (GeneID 31021) | SID104198404 | 4.87e7 | 5.27e7 | 2.1 | 2.29e7 | 2.13e7 |
| pad (GeneID 41981) | SID104194019 | 3.61e7 | 5.16e7 | – | 1.85e7 | 7.20e7 |
